PubChem BioAssay AID504808 | Drosophila RNAi Screening Center | 2011

Aim: 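Genes whose loss lifts activity of an E2F-responsive reporter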 (primary screen)
System: Drosophila S2 cells
Knock-down reagent: long dsRNA against Drosophila genes
Detection: 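Dual luciferase plate measurements; E2F-specific signal taken as firefly over Renilla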
Direction: E2F firefly: higher = more E2F reporter activity; Renilla normaliser: higher = more normaliser reporter signal
Active means: 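a knock-down counted as active when the firefly/Renilla E2F signal rose above 50%, a threshold chosen arbitrarily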
The deposit covers about 21,000 reagents; below is an unselected part of those that have a named target and a result. In the full data, 18 (0.084%) were called active. 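Raw counts without plate normalisation, one of two replicates; the ratio scores behind the calls were not deposited.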 Names joined by + are all predicted targets of the reagent. No sequences are given here. The record does not give: the amount of reagent, the time to read-out.

| E2F firefly, rep 1 | Renilla normaliser, rep 1 | Call | gene | dsRNA |
| --- | --- | --- | --- | --- |
| 96999 | 4227 | inactive | mv | DRSC08208 |
| 94905 | 4519 | inactive | mv | DRSC08570 |
| 1.59e5 | 6427 | inactive | CG16995 | DRSC00480 |
| 1.01e5 | 4092 | inactive | CG13192 | DRSC06317 |
| 81283 | 3715 | inactive | CG11350 | DRSC08181 |
| 47271 | 3549 | inactive | CG31204 | DRSC15106 |
| 2.30e5 | 8061 | inactive | CG4678 | DRSC19911 |
| 2.65e5 | 8161 | inactive | CG4678 | DRSC19912 |
| 77044 | 3380 | inactive | CG7497 | DRSC10857 |
| 78177 | 3207 | inactive | C1GalTA | DRSC03246 |
| 52250 | 3878 | inactive | CG42650 | DRSC12462 |
| 1.60e5 | 5157 | inactive | CG15429 | DRSC00444 |
| 1.39e5 | 4952 | inactive | Ir25a | DRSC00462 |
| 1.07e5 | 4914 | inactive | Mpp6 | DRSC03169 |
| 1.45e5 | 3370 | inactive | Wnt10 | DRSC00990 |
| 1.49e5 | 5015 | inactive | Wnt10 | DRSC02797 |
| 75401 | 3494 | inactive | CG42445 | DRSC10858 |
| 93438 | 4096 | inactive | Rtf1 | DRSC04085 |
| 85383 | 4366 | inactive | CG31516 | DRSC11994 |
| 66203 | 3360 | inactive | mrva | DRSC11009 |
| 1.50e5 | 7285 | inactive | CG4661 | DRSC19910 |
| 1.68e5 | 5703 | inactive | Alr | DRSC19469 |
| 1.39e5 | 7069 | inactive | PGRP-SA | DRSC19420 |
| 1.00e5 | 6215 | inactive | Cog2 | DRSC16987 |
| 81015 | 3649 | inactive | CG7924 | DRSC10931 |
| 1.29e5 | 4980 | inactive | IFT57 | DRSC00720 |
| 99208 | 1583 | inactive | bwa | DRSC01749 |
| 99035 | 3964 | inactive | bwa | DRSC02310 |
| 6796 | 832 | inactive | CG42354 + CG42353 | DRSC20172 |
| 77951 | 3547 | inactive | CLIP-190 | DRSC03283 |
| 83314 | 4341 | inactive | bmm | DRSC10502 |
| 1.82e5 | 4957 | inactive | Acox3 | DRSC03251 |
| 1.18e5 | 5887 | inactive | CG14332 | DRSC14811 |
| 1.04e5 | 5546 | inactive | tbc | DRSC20540 |
| 1.49e5 | 7161 | inactive | BckdhB | DRSC21183 |
| 80532 | 3235 | inactive | ClpP | DRSC02806 |
| 73644 | 3968 | inactive | Hsp26 | DRSC11189 |
| 84107 | 3555 | inactive | Pex19 | DRSC02839 |
| 3397 | 193 | inactive | Rab3 | DRSC07523 |
| 1.15e5 | 5313 | inactive | nAChRalpha3 | DRSC18800 |
| 1.11e5 | 5183 | inactive | CG3500 | DRSC04379 |
| 1.51e5 | 7036 | inactive | peg | DRSC15216 |
| 1.37e5 | 4346 | inactive | mRpL42 | DRSC06235 |
| 94096 | 3698 | inactive | CG15812 | DRSC08479 |
| 174 | 30 | inactive | stj | DRSC06124 |
| 1.03e5 | 4845 | inactive | Or42b | DRSC04913 |
| 89094 | 3446 | inactive | Mulk | DRSC02658 |
| 90286 | 3804 | inactive | CG7384 | DRSC03053 |
| 1.14e5 | 6446 | inactive | CG9372 | DRSC11068 |
| 71429 | 4778 | inactive | CG17304 (retired record) | DRSC15222 |
| 97662 | 3700 | inactive | ACXD | DRSC07843 |
| 1.01e5 | 4199 | inactive | RhoGEF3 | DRSC08351 |
| 97833 | 4419 | inactive | RhoGEF3 | DRSC08352 |
| 54010 | 3404 | inactive | CG17919 | DRSC12571 |
| 1.47e5 | 7268 | inactive | Ask1 | DRSC16789 |
| 71222 | 4298 | inactive | CG15764 | DRSC18070 |
| 83875 | 3344 | inactive | CG3492 | DRSC04373 |
| 79347 | 3583 | inactive | Jarid2 | DRSC10372 |
| 67983 | 3686 | inactive | TfIIFalpha | DRSC12608 |
| 92781 | 4795 | inactive | CG34376 | DRSC14695 |
| 1.30e5 | 6776 | inactive | CG34376 | DRSC14696 |
| 1.08e5 | 6064 | inactive | CG34376 | DRSC14701 |
| 2280 | 944 | inactive | CG4199 | DRSC18519 |
| 1.37e5 | 4191 | inactive | CG7914 | DRSC20068 |
| 1.19e5 | 4322 | inactive | Klp59C | DRSC04348 |
| 63379 | 3410 | inactive | PolA1 | DRSC16640 |
| 68875 | 3830 | inactive | CG11964 | DRSC14447 |
| 1.14e5 | 4429 | inactive | CG32260 | DRSC08084 |
| 2.30e5 | 6415 | inactive | CG42299 + CG42300 | DRSC19680 |
| 2.33e5 | 7230 | inactive | CG42299 + CG42300 | DRSC19815 |
| 85942 | 3800 | inactive | CG3651 | DRSC03730 |
| 70508 | 3246 | inactive | PGRP-LB | DRSC14926 |
| 81807 | 3970 | inactive | CG1275 | DRSC08294 |
| 1.09e5 | 7058 | inactive | Psf3 | DRSC18216 |
| 1.09e5 | 5746 | inactive | TwdlB | DRSC16050 |
| 71468 | 3672 | inactive | CG10657 | DRSC09768 |
| 1.06e5 | 4612 | inactive | Cyp6g2 | DRSC07387 |
| 86305 | 3432 | inactive | Cyp28a5 | DRSC03297 |
| 1.54e5 | 7107 | inactive | Or92a | DRSC16771 |
| 89882 | 4512 | inactive | CG11816 | DRSC19428 |
| 54400 | 6571 | inactive | Hsc70-4 | DRSC16711 |
| 66433 | 3334 | inactive | mtTFB1 + Ccdc56 | DRSC10809 |
| 67593 | 3888 | inactive | CG8042 | DRSC09676 |
| 99351 | 4209 | inactive | CG11275 | DRSC04095 |
| 1.16e5 | 4422 | inactive | Grl40a | DRSC03677 |
| 47777 | 3327 | inactive | Dis3 | DRSC16034 |
| 2.29e5 | 5946 | inactive | CG5321 | DRSC19940 |
| 76212 | 3698 | inactive | Naa35 | DRSC04447 |
| 1.31e5 | 6209 | inactive | MTA1-like | DRSC12382 |
| 1.34e5 | 5224 | inactive | CG33992 (retired record) + CG43755 | DRSC00012 |
| 1.48e5 | 5796 | inactive | Hou | DRSC20001 |
| 1.24e5 | 5371 | inactive | mgl | DRSC17800 |
| 7686 | 836 | inactive | mgl | DRSC17823 |
| 1.32e5 | 6223 | inactive | mgl | DRSC17859 |
| 1.24e5 | 6476 | inactive | mgl | DRSC18004 |
| 1.20e5 | 5506 | inactive | CR33319 | DRSC01826 |
| 1.37e5 | 7978 | inactive | Cby | DRSC14591 |
| 1.04e5 | 5439 | inactive | Btnd | DRSC18316 |
| 54504 | 3140 | inactive | CG6293 | DRSC16011 |
| 1.57e5 | 7190 | inactive | H | DRSC16692 |
| 1.30e5 | 6299 | inactive | rdgC | DRSC11387 |
| 83476 | 3904 | inactive | scny | DRSC10509 |
| 77561 | 2927 | inactive | scny | DRSC10510 |
| 77839 | 3467 | inactive | Pih1D1 | DRSC02897 |
| 1.16e5 | 6659 | inactive | Recs1 | DRSC16545 |
| 73571 | 3368 | inactive | FBXO11 | DRSC16497 |
| 90081 | 4388 | inactive | CG6154 | DRSC15977 |

An excerpt taken from the entries so far, as a working copy:
| E2F firefly, rep 1 | Renilla normaliser, rep 1 | Call | gene | dsRNA |
| --- | --- | --- | --- | --- |
| 80532 | 3235 | inactive | ClpP | DRSC02806 |
| 73644 | 3968 | inactive | Hsp26 | DRSC11189 |
| 84107 | 3555 | inactive | Pex19 | DRSC02839 |
| 3397 | 193 | inactive | Rab3 | DRSC07523 |
| 1.15e5 | 5313 | inactive | nAChRalpha3 | DRSC18800 |
| 1.11e5 | 5183 | inactive | CG3500 | DRSC04379 |
| 1.51e5 | 7036 | inactive | peg | DRSC15216 |
| 1.37e5 | 4346 | inactive | mRpL42 | DRSC06235 |
| 94096 | 3698 | inactive | CG15812 | DRSC08479 |
| 174 | 30 | inactive | stj | DRSC06124 |
| 1.03e5 | 4845 | inactive | Or42b | DRSC04913 |
